For at least one compound, name, drawing or mass did not settle the structure.
Tested on: GAL4(DBD):VP16(AD):GR transactivator / GUS reporter
Assay: Dexamethasone-inducible GUS reporter in 35S::GAL4(DBD):VP16(AD):GR_6xUAS::GUS plant lines
Type: cell-based
Settings: homozygous plant lines, compared to a mock treatment (negligible activity)

C[C@@H]1C[C@H]2[C@@H]3CCC4=CC(=O)C=C[C@]4(C)[C@@]3(F)[C@@H](O)C[C@]2(C)[C@@]1(O)C(=O)CO [dexamethasone]
induction of GUS expression: clear and strong induction of GUS expression

From patent publication US10677785B2, “Reporter constructs for compound screening” (Koch Biological Solutions LLC, priority 2010, dated 2020)
